Binding data for two substances are collected here from paper PMC9788154.

Chains of the proteins cited; added tags and fusions are not shown.
UniProt Q66929: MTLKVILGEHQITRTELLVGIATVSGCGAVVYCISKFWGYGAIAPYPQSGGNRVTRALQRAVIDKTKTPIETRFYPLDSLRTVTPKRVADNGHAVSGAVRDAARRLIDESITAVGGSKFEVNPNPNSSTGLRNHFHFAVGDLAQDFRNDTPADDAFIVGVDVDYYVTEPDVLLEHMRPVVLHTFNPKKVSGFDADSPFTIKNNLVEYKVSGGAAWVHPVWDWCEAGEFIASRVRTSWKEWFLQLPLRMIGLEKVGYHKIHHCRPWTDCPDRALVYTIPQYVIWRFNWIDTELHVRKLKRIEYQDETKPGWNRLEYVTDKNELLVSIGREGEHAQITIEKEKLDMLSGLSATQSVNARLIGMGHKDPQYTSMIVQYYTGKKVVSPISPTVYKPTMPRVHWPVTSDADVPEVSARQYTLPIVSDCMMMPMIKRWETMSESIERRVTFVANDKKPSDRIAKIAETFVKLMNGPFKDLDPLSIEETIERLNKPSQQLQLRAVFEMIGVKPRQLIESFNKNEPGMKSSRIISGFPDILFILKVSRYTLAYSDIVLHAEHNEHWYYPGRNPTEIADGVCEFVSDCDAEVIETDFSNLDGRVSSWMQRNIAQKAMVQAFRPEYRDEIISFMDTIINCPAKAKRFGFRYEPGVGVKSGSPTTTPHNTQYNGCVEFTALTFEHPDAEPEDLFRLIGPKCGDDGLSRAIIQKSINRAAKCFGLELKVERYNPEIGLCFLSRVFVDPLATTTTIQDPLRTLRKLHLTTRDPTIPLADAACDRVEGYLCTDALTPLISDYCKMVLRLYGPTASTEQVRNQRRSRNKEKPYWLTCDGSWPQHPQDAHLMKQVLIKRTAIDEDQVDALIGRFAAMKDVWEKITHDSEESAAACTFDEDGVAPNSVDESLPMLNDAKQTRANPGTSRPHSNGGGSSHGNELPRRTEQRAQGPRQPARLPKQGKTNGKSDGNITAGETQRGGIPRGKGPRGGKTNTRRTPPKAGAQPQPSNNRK
UniProt P68831: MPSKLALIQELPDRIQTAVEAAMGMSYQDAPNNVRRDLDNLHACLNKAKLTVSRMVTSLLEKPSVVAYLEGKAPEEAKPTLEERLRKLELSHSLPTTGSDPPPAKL

In assay [1] the target is Flock House nodavirus (FHV) protein A (Flock House nodavirus (FHV)) (UniProt Q66929). In words: co-IP.
Assay [2] concerns the target Flock House nodavirus (FHV) protein B2 (Flock House nodavirus (FHV)) (UniProt P68831). In words: co-IP.

These are yes or no findings as the source states them, for the method shown. Binding seen in cells or lysates may run through a third protein. Some binding calls cover weakened binding; strength is not graded here.

Take “Flock House nodavirus (FHV) protein B2 (from UniProt P68831 1-106)”: the binding result in assay [1] is on record as “binds”.
Regarding “Flock House nodavirus (FHV) protein A (from UniProt Q66929 1-998)”, in assay [2], the binding result is “binds”.
